According to patent US20220002426A1:
Numbering of substitutions follows the chain as printed. These are yes or no findings as the source states them, for the method shown. Some results given as binding are weak or reduced against the parent protein; the word gives no strength. Values belong to the binder of their own block, whether it stands above or below them.

Target: Cynomolgus TNFR2 (on cynomolgus CD4+ T cells) (cynomolgus monkey (Macaca fascicularis))
Test: FACS, stimulated cynomolgus CD4+ T cells, % over isotype

binding: binds
B1: 001-B05 (antibody, V domains shown)
VH: EVQLLESGGGLVQPGGSLRLSCAASGFTFSNAWMSWVRQAPGKGLEWVSSISSASGYIYYGDSVKGRFTISRDNSKNTLYLQMNNLRAEDTAVYYCARGTLYGDFDEFWGQGTLVTVSS
VL: QSVLTQPPSASGTPGQRVTISCSGSSSNIGNNAVNWYQQLPGTAPKLLIYGNTNRPSGVPDRFSGSKSGTSASLAISGLRSEDEADYYCQSYDSSLSGYVVFGGGTKLTVLG

binding: binds
B2: 001-C05 (antibody, V domains shown)
VH: EVQLLESGGGLVQPGGSLRLSCAASGFTFSSNEMSWIRQAPGKGLEWVSVIYSGGSTYYADSVKGRFTISRDNSKNTLYLQMNSLRAEDTAVYYCARREGWLVPFDYWGQGTLVTVSS
VL: B1 VL with N31S, A33T, T53I, N54I, Y92F, S94T, S95T, Y99S, V100I

binding: binds
B3: 001-F02 (antibody, V domains shown)
VH: EVQLLESGGGLVQPGGSLRLSCAASGFTFSDYYMSWVRQAPGKGLEWVANINTDGSEKYYLDSVKGRFTISRDNSKNTLYLQMNSLRAEDTAVYYCAREEYGAFDIWGQGTLVTVSS
VL: B1 VL with N31S, A33T, G51D, T53N, N54K, Y92F, S94R, S95G, Y99S, V100I

binding: binds
B4: 001-A09 (antibody, V domains shown)
VH: EVQLLESGGGLVQPGGSLRLSCAASGFTFSSNYMSWVRQAPGKGLEWVSVISGSGGSTYYADSVKGRFTISRDNSKNTLYLQMNSLRAEDTAVYYCARDRGWFDPWGQGTLVTVSS
VL: QSVLTQPPSASGTPGQRVTISCSGSRSNIDNSYVSWYQQLPGTAPKLLIYRNNQRPSGVPDRFSGSKSGTSASLAISGLRSEDEADYYCATWDDSLSGPVFGGGTKLTVLG

binding: binds
B5: 001-G10 (antibody, V domains shown)
VH: EVQLLESGGGLVQPGGSLRLSCAASGFTFSAYGMHWVRQAPGKGLEWVAVVSYDGREKHYADSVKGRFTISRDNSKNTLYLQMNSLRAEDTAVYYCARSDGGYDSDSGYYWGQGTLVTVSS
VL: QSVLTQPPSASGTPGQRVTISCSGSTSNIGSNFVYWYQQLPGTAPKLLIYDNNKRPSGVPDRFSGSKSGTSASLAISGLRSEDEADYYCSSYAYSDNILFGGGTKLTVLG

binding: binds
B6: 001-E06 (antibody, V domains shown)
VH: EVQLLESGGGLVQPGGSLRLSCAASGFTFSSNYMSWVRQAPGKGLEWVALIWYDGSNKYYADSVKGRFTISRDNSKNTLYLQMNSLRAEDTAVYYCAKDPLFDSWGQGTLVTVSS
VL: QSVLTQPPSASGTPGQRVTISCTGRSSNIGAGYDVHWYQQLPGTAPKLLIYDNNKRPSGVPDRFSGSKSGTSASLAISGLRSEDEADYYCAAWDDSLNGPVFGGGTKLTVLG

binding: binds
B7: 001-F06 (antibody, V domains shown)
VH: EVQLLESGGGLVQPGGSLRLSCAASGFTFSSYAMHWVRQAPGKGLEWVSAISGGATTTYYADSVKGRFTISRDNSKNTLYLQMNSLRAEDTAVYYCAKGGTGDPYYFDYWGQGTLVTVSS
VL: B6 VL with R25S, D52R, K55Q, W93R, S96G, N98S

binding: binds
B8: 004-E08 (antibody, V domains shown)
VH: EVQLLESGGGLVQPGGSLRLSCAASGFTFSRYWMHWVRQVPGKGLEWVSGISDSGVVTYYADSVKGRFTISRDNSKNTLYLQMNSLRAEDTAVYYCARAQSVAFDIWGQGTLVTVSS
VL: B6 VL with T23S, R25S, Y33H, D52Y, N53D, N54D, K55L, R56L, N98S, P100W

binding: binds
B9: 001-H10 (antibody, V domains shown)
VH: EVQLLESGGGLVQPGGSLRLSCAASGFTFDDYGMSWVRQAPGKGLEWVSVIYSGGSTYYADSVKGRFTISRDNSKNTLYLQMNSLRAEDTAVYYCARDRSSSWYRDGMDVWGQGTLVTVSS
VL: B6 VL with R25S, D52G, N54S, K55N, N98S, P100W

binding: binds
B10: 001-B09 (antibody, V domains shown)
VH: EVQLLESGGGLVQPGGSLRLSCAASGFTFSRHAMNWVRQAPGKGLEWVSSISTGSSYIDYADSVKGRFTISRDNSKNTLYLQMNSLRAEDTAVYYCAREKGHYYYGMDVWGQGTLVTVSS
VL: QSVLTQPPSASGTPGQRVTISCTGSSSNIGAGYDVHWYQQLPGTAPKLLIYGNSYRPSGVPDRFSGSKSGTSASLAISGLRSEDEADYYCQSYDTSLSAYVVFGGGTKLTVLG

binding: binds
B11: 001-C03 (antibody, V domains shown)
VH: EVQLLESGGGLVQPGGSLRLSCAASGFTFSNAWMSWVRQAPGKGLEWVSAISVSGINTYYADSVKGRFTISRDNSKNTLYLQMNSLRAEDTAVYYCARDTGSLGVDYWGQGTLVTVSS
VL: QSVLTQPPSASGTPGQRVTISCSGSSSNIGSNTVNWYQQLPGTAPKLLIYRNNQRPSGVPDRFSGSKSGTSASLAISGLRSEDEADYYCQSYDSSLSISVFGGGTKLTVLG
